In PubChem BioAssay AID2685 (National Center for Advancing Translational Sciences (NCATS), 2010):
The list shows a part of the results. These are further read-outs of the screen, such as a control signal, another cell line or another target. No call is given for them. Compounds called inactive in the main read-out are mostly missing here. The note in brackets gives the kind of curve behind each potency; many fits are weak.

Assay: qHTS Assay for Lipid Storage Modulators in Drosophila S3 Cells;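 for cell number change: cells counted by Cell Tracker Red CMTPX staining in the red channel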
Conditions: BODIPY lipid droplet fluorescence, 18-24 h; for cell number change: measured here: cell count max response, cells fed with added oleic acid
Procedure, shortened: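 Laser-scanning cytometry quantifies lipid droplet accumulation (500–530 nm total intensity; droplet/cell object ratio) in oleic acid-fed (400 uM added) Drosophila S3 cells treated with a concentration series. 20 uM Triacsin C defined 100% inhibition.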

[1] = measured here: cell number channel AC50, cells fed with added oleic acid
[2] = measured here: lipid fluorescence (Fed channel) AC50, cells fed with added oleic acid

Which results are given for `Cc1ccsc1/C=N/NC(=O)c1ccccn1`?
cell number change: -33.9%; AC50 [1]: 16.4 µM [falling, single point]; AC50 [2]: 0.731 µM [rising, single point]

For `COc1ccc(CNC(=O)CSc2nc3ccc(C)cc3[nH]2)cc1`, which cell number change is on record?
The cell number change was 2.13%.

Which cell number change does the source give for `CCCCN=C(C)C1=C(O)CSC1=O` here?
The cell number change was -15.7%.

And the AC50 [2]?
The AC50 was 6.51 µM [falling, single point].

Which cell number change does the source give for `COc1ccc(CNC(=O)c2ccc(CS(=O)(=O)c3ccccc3C)o2)cc1` here?
The cell number change was -21.7%.

What about the AC50 [2] of the same compound?
Its AC50 is 25.9 µM [falling, single point].

For `COc1ccc(OC)c(CN2CCN(C(=O)c3cccc(S(=O)(=O)Nc4ccc(C)cc4)c3)CC2)c1`, which cell number change is on record?
The cell number change was -34.2%.

And the AC50 [1]?
Its AC50 is 14.6 µM [falling, partial curve, poor fit].

What about the AC50 [2] of the same compound?
Its AC50 is 8.2 µM [falling, partial curve].

With `CCOC(=O)C1CCN(S(=O)(=O)c2cccc(-c3cn4cccc(C)c4n3)c2)CC1` as the compound, how does the cell number change read?
The cell number change was -13.7%.

Which cell number change does the source give for `O=C(CCCn1cc([N+](=O)[O-])cn1)Nc1cccnc1` here?
The cell number change was -16%.

What does the source list for `C=CCn1c(SCC(=O)Nc2cccc(S(=O)(=O)N(C)c3ccccc3)c2)nnc1C1CC1`?
cell number change: -34%; AC50 [1]: 6.51 µM [falling, partial curve]

For `COc1cccc(C2c3c(-c4cc(Cl)c(C)cc4O)n[nH]c3C(=O)N2Cc2cccnc2)c1` (configuration not stated), which cell number change is on record?
The cell number change was 53.9%.

What about the AC50 [1] of the same compound?
Its AC50 is 8.2 µM [rising, partial curve, poor fit].

Which cell number change does the source give for `CC(C)(C)NC(=O)C(=O)NN=C1CCCCCCC1` here?
Its cell number change is -52.5%.

What about the AC50 [1] of the same compound?
Its AC50 is 29.1 µM [falling, single point].

With `CC(Oc1ccc2c3c(c(=O)oc2c1)CCCC3)C(=O)NC1CC(C)(C)NC(C)(C)C1` (configuration not stated) as the compound, how does the cell number change read?
Its cell number change is 9.24%.

Which results are given for `CC(C)C(C)NC(=O)CSc1ccc(S(=O)(=O)N2CCOCC2)cn1` (configuration not stated)?
cell number change: 1.3%; AC50 [2]: 0.13 µM [falling, full curve, poor fit]

With `CN(C)/C=N/c1ncc(-c2ncc(C(F)(F)F)cc2Cl)cn1` as the compound, how does the cell number change read?
Its cell number change is -50%.

And the AC50 [1]?
Its AC50 is 25.9 µM [falling, partial curve].

What about the AC50 [2] of the same compound?
Its AC50 is 14.6 µM [falling, partial curve].

Which results are given for `O=C(c1ccc([N+](=O)[O-])cc1)N1CCN(C2=NS(=O)(=O)c3ccccc32)CC1`?
cell number change: 3.24%; AC50 [2]: 0.794 µM [rising, full curve, poor fit]

Which results are given for `O=S1(=O)CCN(C(CCO)c2cccc(C(F)(F)F)c2)CC1` (configuration not stated)?
cell number change: 16.4%; AC50 [2]: 0.164 µM [falling, full curve]

With `CNC(=O)C1CCN(S(=O)(=O)c2c(C)noc2/C=C/c2cccc(OC)c2)CC1` as the compound, how does the cell number change read?
Its cell number change is 10.4%.

And the AC50 [2]?
The AC50 was 29.1 µM [falling, single point].

With `COc1cccc(-n2nc(C(=O)NCC3CCCO3)c3ccccc3c2=O)c1` (configuration not stated) as the compound, how does the cell number change read?
The cell number change was 29.3%.
